Test results taken from article PMC4753070 (Bioorganic & medicinal chemistry letters, 2016).

Tested on: histone H3K9 acetylation in mouse forebrain primary neuronal cultures
Assay: Neuronal histone acetylation assay, H3K9ac immunofluorescence
Assay type: cell-based
Details: Neuron, 24 h, read-out: EC50 for acetylation level of H3K9

O=C(CCCCCCC(=O)Nc1ccccc1)NO [SAHA, suberoylanilide hydroxamic acid, reference compound]
EC50: 950 nM
